Measured values as given in the supplement of paper PMC8007513.
The list shows a part of the results. Many values rest on one well or one pass, so single values are uncertain.

The molecules below were run on Saccharomyces cerevisiae BY4743 (assay: growth (OD600) relative to untreated control; higher = less growth inhibition). Settings: compound concentration: 133 uM; 20 h.
Description: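 NMCCC compounds (133 uM, no IPBC) tested alone against Saccharomyces cerevisiae BY4743 in YPD, 96-well plates, starting OD600 ~0.1. Growth was read as OD600 at 20 h and expressed as % of the untreated control. Single pass.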
COC(CN(C)C(=O)c1cc2c(C)nc3ccccc3c2o1)OC gave a growth of 91.3%.
In the case of FC(F)(F)c1cnc(SCc2noc(-c3ccsc3)n2)c(Cl)c1, the growth was 105%.
With COc1ccc(-c2nc(C(=O)OCC(=O)Nc3sccc3C(N)=O)cs2)cc1OC the growth was 117%.
In the case of O=C1CCCCC1Sc1nnc(O)n1Cc1ccccc1 (centres undefined), the growth was 93.2%.
O=C(Nc1cc(Cl)ccc1-n1cncn1)c1cncc(Br)c1 showed a growth of 65.3%.
For Fc1ccc(-c2ccc(NCCc3cccs3)nn2)cc1, the growth was 90.9%.
With CCC(C)(C)C1CCC(NC(=O)c2ccc(N3CCOCC3)nc2)CC1 (centres undefined) the growth was 111%.
Molecule COc1cccc(CNCc2cccn2-c2sc(C)c(C)c2C(=O)O)c1 has a growth of 99%.
CCC(C(=O)Nc1nnc(CCc2ccc(OC)cc2)s1)c1ccccc1 (centres undefined) gave a growth of 83.1%.
Work on COC(=O)c1cc(OC)c(OC)cc1NS(=O)(=O)c1ccccc1C(F)(F)F yielded a growth of 105%.
Molecule Cc1ccccc1S(=O)(=O)Nc1ncc(C(F)(F)F)cc1Cl has a growth of 109%.
CC(C)c1nc(SC(C(=O)Nc2ccc(F)cc2)C(C)C)n[nH]1 (centres undefined) was tested, and the growth was 98.9%.
CC(C)CCN1CCC(CNS(=O)(=O)c2ccc3c(c2)C(C)(C)C(=O)N3C)CC1 was tested, and the growth was 99.9%.
Molecule COCC(=O)Nc1nc2nc(-c3ccccc3)cc(O)n2n1 has a growth of 99.9%.
With Cc1nc2nc(CCc3ccccc3)nn2c(C)c1Cl the growth was 102%.
CCC(C(=O)N1CCOCC1)n1c(C(=O)OC)cc2sc(C)cc21 (centres undefined) gave a growth of 110%.
Cc1ccc2cc(C(=O)NCCN3CCS(=O)(=O)CC3)c(C)nc2c1 gave a growth of 105%.
O=C(Nc1ccc(Cl)c(-c2nc3cnccc3o2)c1)C(F)(F)F was tested, and the growth was 101%.
For Cc1noc(C)c1S(=O)(=O)NCCC(=O)N(C)Cc1ccc2c(c1)OCCO2, the growth was 107%.
CCN(Cc1ccncc1)Cn1c(=O)oc2ccccc21 gave a growth of 88.8%.
For O=C(CCc1ccc(S(=O)(=O)N2CCCCCC2)cc1)OCC(=O)N1CCNC1=O, the growth was 117%.
CCOC(CNC(=O)c1cc2c(s1)-c1ccccc1OC2)OCC showed a growth of 105%.
CC(NC(=O)CSc1nc(O)c2ccsc2n1)c1cccs1 (centres undefined) showed a growth of 97%.
Work on Cc1cc(C)nc(SCc2nnc(SCC(N)=O)n2-c2ccc(Cl)cc2)n1 yielded a growth of 98.9%.
Cn1cccc1Cc1nnc(SCC(N)=O)n1-c1ccc(Cl)cc1 gave a growth of 93.2%.
CCc1ccc(CN(CC(=O)N2CCNCC2)S(=O)(=O)c2cc(C)c(C)cc2C)cc1 showed a growth of 113%.
With CCN(CC)CCS\C1=N\C(=C(\CC)C(=O)N1C2=CC=CC=C2)O the growth was 97.1%.
CCC(C)NC(=O)c1cccc(-n2cnc3cccnc32)c1 (centres undefined) showed a growth of 83.1%.
In the case of CCN(CC)c1ccc2nnc(CCC(=O)NCc3ccccn3)n2n1, the growth was 101%.
Molecule O=C(c1ccco1)N1CCN(C(=O)c2cccnc2SC(F)F)CC1 has a growth of 92%.
In the case of COc1cc(C(C)NC(=O)c2c(-c3ccccc3)noc2C)cc(OC)c1OC (centres undefined), the growth was 97%.
In the case of CC(=O)N1c2ccc(S(=O)(=O)NC(C(=O)Nc3ccccn3)C(C)C)cc2CC1C (centres undefined), the growth was 107%.
Work on CC(=O)Nc1ccc(C(=O)CSc2nc3cc(C)ccc3[nH]2)c(F)c1 yielded a growth of 110%.
Cc1ccc(-c2ncccc2C(=O)Nc2cccc(F)c2)s1 gave a growth of 103%.
In the case of CCCC(=O)Nc1nc2cc(NS(=O)(=O)c3cccs3)ccc2s1, the growth was 112%.
COc1cc(OC)cc(-c2nnc(SCC(=O)N3CCOCC3)o2)c1 showed a growth of 97.1%.
For CC(C)(C)Nc1nnc(SCc2nc(Cc3ccccc3)no2)s1, the growth was 101%.
Molecule CSc1nncc(-c2ccc(Br)cc2)n1 has a growth of 81.3%.
CC(OCc1ccccc1)C(=O)Nc1cccc2c[nH]nc12 (centres undefined) was tested, and the growth was 92.9%.
